Test results as given in patent US20230053131A1 (INTERVET, published 2023).
Where a chain is given by its changes, count along the chain named. Results are given in words; binding and its absence hold for the method and conditions named. Some binding calls cover weakened binding; strength is not graded here.

B1: c146E2VL3-cCLk-s/c146E2VH3-cIgG-Bm (antibody, V domains shown)
VH: EVQLVQSGAEVKKPGASVKVSCKASGYTFARYWMHWMKQAPGAGLDWIGMIHPDSGNINYNERFKTKATLTVDKSTSTAYMELSSLRAGDIAVYYCARQLRNAMDYWGQGTLVTVSS
VL: DIVLTQTPLSLSVSPGETASIYCRASESVDSYGNSFLNWYQQKPGQPPKLLIYRASNLASEIPDRFSGSGSRTEFTLKISRVEADDAGVYYCQQNYENPRTFGQGTKLEIKR
notes: Caninized murine anti-canine IL-4R alpha antibody, canine IgG-Bm heavy chain and canine kappa light chain; also called c146E2-H3L3
B2: c146ClL1-H3 (antibody, V domains shown)
VH: B1 VH
VL: QSVLTQPASVSGSLGQRVTISCRASESVDSYGNSFLNWYQQLPGKAPSLLIYRASNLASGVPERFSGSKSGSSATLTITGLQAEDEADYYCQQNYENPRTFGGGTHLTVLG
B3: c146ClL1-H1 (antibody, V domains shown)
VH: B1 VH with M37V, K38R, I48M, K67R, A68V, V72A, K74T
VL: B2 VL
B4: c146ClL1-H2 (antibody, V domains shown)
VH: B1 VH with V72A, K74T
VL: B2 VL

Target: T1, canine IL-4 receptor alpha (as used in the ELISA of FIG. 3 and in the epitope mapping) (canine)
T1 sequence: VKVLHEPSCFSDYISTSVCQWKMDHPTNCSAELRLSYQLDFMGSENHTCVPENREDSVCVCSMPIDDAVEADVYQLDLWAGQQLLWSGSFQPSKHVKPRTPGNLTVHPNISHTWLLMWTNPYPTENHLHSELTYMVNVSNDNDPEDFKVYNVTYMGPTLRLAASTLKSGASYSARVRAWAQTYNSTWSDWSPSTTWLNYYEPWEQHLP
Assay: ELISA (FIG. 3)

binding, binds:
B1, B2

Target: T1, canine IL-4 receptor alpha (as used in the ELISA of FIG. 3 and in the epitope mapping) (canine)
Assay: ELISA

binding, binds:
B3, B1, B2, B4
